Literature values as cited in patent US20100016244A1, “D-GLUCOPYRANOSE 1-[3,5-BIS (1,1-DIMETHYLETHY)-4-HYDROXYBENZOATE] AND ITS DERIVATIVES, PREPARATION AND USE THEREOF” (priority 2006, published 2010).
At least one compound was matched to its structure with a doubt left.

Assays:
[1] = system: virus responsible of the Newcastle disease (VMN); settings: embryonic chicken cells pre-treated with 25 μg/ml BHT; cited from earlier work
[2] = system: virus responsible of the Newcastle disease (VMN); settings: chickens; food containing 200 ppm BHT; cited from earlier work

## Cc1cc(C(C)(C)C)c(O)c(C(C)(C)C)c1 [BHT, butylhydroxytoluene]
[1]
  virus production reduced: 65%
[2]
  protection against inoculated Newcastle disease virus infection: protected against infection
